{"source": "patent US20050215521A1", "about": "“Modafinil combination therapy for improving sleep quality” (priority 2003, published 2005)", "origin": "cited, not measured here", "tested_on": "mice", "conditions": "reference agents, scores below 40 of 60 denote behavioral depression", "note": "For at least one compound, name, drawing or mass did not settle the structure.", "data": [{"smiles": "CN1CCN(C2=Nc3cc(Cl)ccc3Nc3ccccc32)CC1", "note": "[clozapine]", "values": [{"measurement": "ED100", "result": 25, "unit": "mg/kg"}]}, {"smiles": "CNC1=Nc2ccc(Cl)cc2C(c2ccccc2)=[N+]([O-])C1", "note": "[chlordiazepoxide]", "values": [{"measurement": "ED100", "result": 100, "unit": "mg/kg"}]}]}
